Results deposited as PubChem BioAssay AID1224828 (NIAID, 2016).
Assay: 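Knock-downs that increase or decrease LPS-induced p65 nuclear translocation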 (primary screen). System: mouse RAW264.7 G9 macrophage reporter cells (GFP-p65, Tnf promoter-mCherry). Reagent: siRNA pool against mouse genes, 100 nM. Duration: 2 days siRNA transfection, then 40 min LPS before fixation. Conditions: LPS (Salmonella minnesota R595) at 10 ng/ml. Read-out: 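Imaged p65 nuclear translocation ratio, normalised to the plate median, converted to robust z-scores and averaged across two replicates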. Reading the numbers: p65 translocation robust z-score: higher = more nuclear NF-kappaB p65 after LPS than the plate median; nuclear/cytoplasmic p65 ratio: higher = more nuclear NF-kappaB p65. Call rule: 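Active if robust z is above 3.3 (negative regulators) or below -1.56, the Tlr4 control median (positive regulators); activity score 50 or more; control wells not called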. Meaning of the calls: active = hit (p65 shift raised or lowered); inactive = no clear change.
This is one part, drawn at random, of about 17,000 deposited reagents. 762 of all reagents (4.5%) were called active. 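Active calls include both raised and lowered p65 entry, mostly lowered; wells with fewer than 50 cells lack a z-score.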 The raw values are shown without normalisation. Entries without a mark were called inactive.

With knock-down of Abcg5 the results were p65 translocation robust z-score -0.01; nuclear/cytoplasmic p65 ratio, rep 1 = 1.6; nuclear/cytoplasmic p65 ratio, rep 2 = 1.63; low cell count flag enough cells to score.
Knock-down of Ehbp1l1 came out at: p65 translocation robust z-score 0.19; nuclear/cytoplasmic p65 ratio, rep 1 = 1.74; nuclear/cytoplasmic p65 ratio, rep 2 = 1.58; low cell count flag enough cells to score.
Dolk scored p65 translocation robust z-score 0.25; nuclear/cytoplasmic p65 ratio, rep 1 = 1.4; nuclear/cytoplasmic p65 ratio, rep 2 = 1.17; low cell count flag enough cells to score.
Pou3f2 scored p65 translocation robust z-score -1.58 (active); nuclear/cytoplasmic p65 ratio, rep 1 = 1.34; nuclear/cytoplasmic p65 ratio, rep 2 = 1.15; low cell count flag enough cells to score.
Traf1 scored p65 translocation robust z-score 1.29; nuclear/cytoplasmic p65 ratio, rep 1 = 1.64; nuclear/cytoplasmic p65 ratio, rep 2 = 1.74; low cell count flag enough cells to score.
Usp44 gave p65 translocation robust z-score -0.76; nuclear/cytoplasmic p65 ratio, rep 1 = 1.36; nuclear/cytoplasmic p65 ratio, rep 2 = 1.33; low cell count flag enough cells to score.
For Rpl23, the values are p65 translocation robust z-score 0.28; nuclear/cytoplasmic p65 ratio, rep 1 = 1.45; nuclear/cytoplasmic p65 ratio, rep 2 = 1.26; low cell count flag enough cells to score.
For Sdccag8, the values are p65 translocation robust z-score -0.04; nuclear/cytoplasmic p65 ratio, rep 1 = 1.42; nuclear/cytoplasmic p65 ratio, rep 2 = 1.21; low cell count flag enough cells to score.
Ppp1ca gave p65 translocation robust z-score 0.08; nuclear/cytoplasmic p65 ratio, rep 1 = 1.56; nuclear/cytoplasmic p65 ratio, rep 2 = 1.37; low cell count flag enough cells to score.
Smarca5 scored p65 translocation robust z-score 1.53; nuclear/cytoplasmic p65 ratio, rep 1 = 1.66; nuclear/cytoplasmic p65 ratio, rep 2 = 1.88; low cell count flag enough cells to score.
Depletion of Arnt2 resulted in: p65 translocation robust z-score -0.94; nuclear/cytoplasmic p65 ratio, rep 1 = 1.5; nuclear/cytoplasmic p65 ratio, rep 2 = 1.46; low cell count flag enough cells to score.
After knock-down of Stim1, the screen gave p65 translocation robust z-score -0.9; nuclear/cytoplasmic p65 ratio, rep 1 = 1.18; nuclear/cytoplasmic p65 ratio, rep 2 = 1.13; low cell count flag enough cells to score.
